PubChem BioAssay AID504764, Drosophila RNAi Screening Center | 2011
Screen: 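Knock-downs that raise or lower a Notch target reporter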 (primary screen). System: Drosophila Kc167 cells. Reagents: long dsRNA against Drosophila genes. Timing: about 5 days (4 days dsRNA, then 24 h after transfection). Challenge: transfection of constitutively active membrane-tethered Notch lacking the extracellular domain, read 24 h later. Measured: 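Firefly luciferase from an E(spl)m3 reporter with active Notch, plus control-promoter and uninduced reporter wells for normalisation; unnormalised counts, duplicate wells a and b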. Reading the numbers: induced reporter light, run 1, well a and induced reporter light, run 1, well b: higher = more light from the Notch target reporter with active Notch; control promoter light, run 1, well a and control promoter light, run 1, well b: higher = more light from the viral control promoter (cell number, transfection, viability); uninduced reporter light, run 1, well a: higher = more light from the Notch target reporter without active Notch. Active means: 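Wells with low control signal or poorly matching duplicates excluded; duplicates averaged; per source plate, z beyond ±2 for induced/control log2 ratio or beyond ±1.8 for induced/uninduced marks a hit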. Calls: active = modifier hit (raised or lowered Notch signal); inactive = not a hit.
In all, the deposit lists about 22,000 reagents; shown is a random part of those that have a named target and a result. Over the whole deposit, 403 (1.9%) got an active call. 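Unnormalised raw counts per well; ratio z-scores behind the hit calls and whether each hit raises or lowers signal are not deposited.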 Reagent sequences are not shown. Not given: the amount of reagent.

For side-VIII [DRSC05880], what does the deposit list?
induced reporter light, run 1, well a: 1.27e5; induced reporter light, run 1, well b: 1.38e5; control promoter light, run 1, well a: 1.96e5; control promoter light, run 1, well b: 1.54e5; uninduced reporter light, run 1, well a: 10770; activity call: inactive

With side-VIII [DRSC05883], what was measured?
induced reporter light, run 1, well a: 1.03e5; induced reporter light, run 1, well b: 1.10e5; control promoter light, run 1, well a: 1.63e5; control promoter light, run 1, well b: 1.51e5; uninduced reporter light, run 1, well a: 8180; activity call: inactive

With side-VIII [DRSC06157], how do the results read?
induced reporter light, run 1, well a: 1.40e5; induced reporter light, run 1, well b: 1.19e5; control promoter light, run 1, well a: 1.32e5; control promoter light, run 1, well b: 1.52e5; uninduced reporter light, run 1, well a: 13240; activity call: inactive

What is on record for shtd [DRSC20166]?
induced reporter light, run 1, well a: 1.60e5; induced reporter light, run 1, well b: 1.55e5; control promoter light, run 1, well a: 1.90e5; control promoter light, run 1, well b: 2.00e5; uninduced reporter light, run 1, well a: 11335; activity call: inactive

With Ir7b [DRSC18009], what does the deposit list?
induced reporter light, run 1, well a: 1.29e5; induced reporter light, run 1, well b: 1.67e5; control promoter light, run 1, well a: 2.87e5; control promoter light, run 1, well b: 2.72e5; uninduced reporter light, run 1, well a: 12528; activity call: inactive

For Reck [DRSC10504], how do the results read?
induced reporter light, run 1, well a: 1.22e5; induced reporter light, run 1, well b: 1.35e5; control promoter light, run 1, well a: 73745; control promoter light, run 1, well b: 91690; uninduced reporter light, run 1, well a: 8955; activity call: inactive

For Reck [DRSC10505], how do the results read?
induced reporter light, run 1, well a: 2.41e5; induced reporter light, run 1, well b: 2.18e5; control promoter light, run 1, well a: 2.64e5; control promoter light, run 1, well b: 2.88e5; uninduced reporter light, run 1, well a: 9038; activity call: inactive

What did the screen give for PH4alphaNE1 [DRSC16546]?
induced reporter light, run 1, well a: 40415; induced reporter light, run 1, well b: 47595; control promoter light, run 1, well a: 47690; control promoter light, run 1, well b: 51355; uninduced reporter light, run 1, well a: 3410; activity call: inactive

With CG15580 [DRSC12266], what was measured?
induced reporter light, run 1, well a: 95040; induced reporter light, run 1, well b: 96380; control promoter light, run 1, well a: 1.08e5; control promoter light, run 1, well b: 72560; uninduced reporter light, run 1, well a: 6755; activity call: inactive

With Iml1 [DRSC08249], how do the results read?
induced reporter light, run 1, well a: 51315; induced reporter light, run 1, well b: 50430; control promoter light, run 1, well a: 58760; control promoter light, run 1, well b: 82260; uninduced reporter light, run 1, well a: 4430; activity call: inactive

Which result is listed for beag [DRSC15296]?
induced reporter light, run 1, well a: 1.24e5; induced reporter light, run 1, well b: 1.15e5; control promoter light, run 1, well a: 63120; control promoter light, run 1, well b: 73145; uninduced reporter light, run 1, well a: 8875; activity call: inactive

What did the screen give for Or35a [DRSC03389]?
induced reporter light, run 1, well a: 98050; induced reporter light, run 1, well b: 1.24e5; control promoter light, run 1, well a: 1.31e5; control promoter light, run 1, well b: 1.48e5; uninduced reporter light, run 1, well a: 9855; activity call: inactive

For pns [DRSC08598], what was measured?
induced reporter light, run 1, well a: 91645; induced reporter light, run 1, well b: 98525; control promoter light, run 1, well a: 1.54e5; control promoter light, run 1, well b: 1.21e5; uninduced reporter light, run 1, well a: 6515; activity call: inactive

With CG12289 [DRSC09874], how do the results read?
induced reporter light, run 1, well a: 1.45e5; induced reporter light, run 1, well b: 93870; control promoter light, run 1, well a: 1.20e5; control promoter light, run 1, well b: 1.35e5; uninduced reporter light, run 1, well a: 13105; activity call: inactive

With a [DRSC04667], how do the results read?
induced reporter light, run 1, well a: 3720; induced reporter light, run 1, well b: 3865; control promoter light, run 1, well a: 2715; control promoter light, run 1, well b: 2540; uninduced reporter light, run 1, well a: 845; activity call: inactive

What did the screen give for a [DRSC04668]?
induced reporter light, run 1, well a: 25950; induced reporter light, run 1, well b: 29245; control promoter light, run 1, well a: 26360; control promoter light, run 1, well b: 19605; uninduced reporter light, run 1, well a: 1435; activity call: inactive

What did the screen give for Cyp4p2 [DRSC07373]?
induced reporter light, run 1, well a: 2.15e5; induced reporter light, run 1, well b: 1.94e5; control promoter light, run 1, well a: 2.32e5; control promoter light, run 1, well b: 2.64e5; uninduced reporter light, run 1, well a: 17605; activity call: inactive

How did the screen score Apc2 [DRSC14115]?
induced reporter light, run 1, well a: 33845; induced reporter light, run 1, well b: 41360; control promoter light, run 1, well a: 35960; control promoter light, run 1, well b: 41850; uninduced reporter light, run 1, well a: 3165; activity call: inactive

For CG31391 [DRSC16047], what was measured?
induced reporter light, run 1, well a: 85355; induced reporter light, run 1, well b: 88365; control promoter light, run 1, well a: 29885; control promoter light, run 1, well b: 28020; uninduced reporter light, run 1, well a: 7430; activity call: inactive

For Hrs [DRSC00549], what was measured?
induced reporter light, run 1, well a: 2.23e5; induced reporter light, run 1, well b: 1.99e5; control promoter light, run 1, well a: 2.29e5; control promoter light, run 1, well b: 2.45e5; uninduced reporter light, run 1, well a: 23210; activity call: inactive

Which result is listed for CG9400 [DRSC20182]?
induced reporter light, run 1, well a: 2.46e5; induced reporter light, run 1, well b: 1.99e5; control promoter light, run 1, well a: 3.09e5; control promoter light, run 1, well b: 2.94e5; uninduced reporter light, run 1, well a: 16455; activity call: inactive

With Osi9 [DRSC12278], how do the results read?
induced reporter light, run 1, well a: 1.80e5; induced reporter light, run 1, well b: 1.49e5; control promoter light, run 1, well a: 2.70e5; control promoter light, run 1, well b: 2.77e5; uninduced reporter light, run 1, well a: 11645; activity call: inactive

For mam [DRSC05468], how do the results read?
induced reporter light, run 1, well a: 11440; induced reporter light, run 1, well b: 13865; control promoter light, run 1, well a: 13210; control promoter light, run 1, well b: 13860; uninduced reporter light, run 1, well a: 5815; activity call: inactive

With mam [DRSC07648], what does the deposit list?
induced reporter light, run 1, well a: 8865; induced reporter light, run 1, well b: 7025; control promoter light, run 1, well a: 11820; control promoter light, run 1, well b: 6670; uninduced reporter light, run 1, well a: 2600; activity call: inactive

Laid out differently: 2 of the entries above
Target gene,dsRNA,"induced reporter light, run 1, well a","induced reporter light, run 1, well b","control promoter light, run 1, well a","control promoter light, run 1, well b","uninduced reporter light, run 1, well a",activity call
side-VIII,DRSC05880,1.27e5,1.38e5,1.96e5,1.54e5,10770,inactive
side-VIII,DRSC05883,1.03e5,1.10e5,1.63e5,1.51e5,8180,inactive
